This is one part of the list. Small differences around the control level are noise.
Compound: CC1(C)S[C@@H]2[C@H](NC(=O)[C@H](N)c3ccccc3)C(=O)N2[C@H]1C(=O)O [ampicillin]
Experiment: log2 fold change of tryptic peptide abundance, ligand vs vehicle (limited proteolysis) (log2 ratio); higher = more trypsin-susceptible (destabilized)
Settings: ligand concentration: 10 uM; sample: E. coli crude lysate

Chains of the proteins cited; added tags and fusions are not shown. Lines headed by an entry give the natural chain unless they say otherwise; changes in a name come on top.
UniProt P19926: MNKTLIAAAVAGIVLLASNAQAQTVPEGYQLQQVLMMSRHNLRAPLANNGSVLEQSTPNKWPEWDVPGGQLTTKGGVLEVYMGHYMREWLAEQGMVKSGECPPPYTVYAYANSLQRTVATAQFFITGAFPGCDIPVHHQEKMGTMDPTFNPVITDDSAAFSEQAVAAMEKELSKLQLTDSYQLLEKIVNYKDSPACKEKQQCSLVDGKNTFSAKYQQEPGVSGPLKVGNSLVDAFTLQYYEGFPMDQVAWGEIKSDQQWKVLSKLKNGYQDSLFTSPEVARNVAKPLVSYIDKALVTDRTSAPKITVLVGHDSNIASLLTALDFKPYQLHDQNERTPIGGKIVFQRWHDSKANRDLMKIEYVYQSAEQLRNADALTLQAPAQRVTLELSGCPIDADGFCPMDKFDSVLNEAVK
UniProt P15288: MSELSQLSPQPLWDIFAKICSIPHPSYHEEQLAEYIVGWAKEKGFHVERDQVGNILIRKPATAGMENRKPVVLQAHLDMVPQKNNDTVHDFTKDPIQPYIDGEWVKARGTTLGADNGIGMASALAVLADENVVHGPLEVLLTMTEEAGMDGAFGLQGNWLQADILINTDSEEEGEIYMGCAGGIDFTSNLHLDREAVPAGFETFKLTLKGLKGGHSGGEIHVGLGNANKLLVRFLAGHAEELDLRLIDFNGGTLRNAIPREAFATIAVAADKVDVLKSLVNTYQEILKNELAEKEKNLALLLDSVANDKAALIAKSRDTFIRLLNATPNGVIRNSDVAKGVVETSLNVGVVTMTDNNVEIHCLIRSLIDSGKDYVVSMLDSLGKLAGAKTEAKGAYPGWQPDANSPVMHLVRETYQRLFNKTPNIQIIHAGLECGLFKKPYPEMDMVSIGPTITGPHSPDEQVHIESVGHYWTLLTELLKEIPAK
UniProt P23305: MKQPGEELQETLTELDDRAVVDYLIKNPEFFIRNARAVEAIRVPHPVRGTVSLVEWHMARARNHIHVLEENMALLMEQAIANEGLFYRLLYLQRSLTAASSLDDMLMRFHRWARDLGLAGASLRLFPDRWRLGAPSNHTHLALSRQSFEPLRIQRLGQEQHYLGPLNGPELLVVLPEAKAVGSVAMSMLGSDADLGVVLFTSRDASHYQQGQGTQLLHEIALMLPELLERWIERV
UniProt P19319: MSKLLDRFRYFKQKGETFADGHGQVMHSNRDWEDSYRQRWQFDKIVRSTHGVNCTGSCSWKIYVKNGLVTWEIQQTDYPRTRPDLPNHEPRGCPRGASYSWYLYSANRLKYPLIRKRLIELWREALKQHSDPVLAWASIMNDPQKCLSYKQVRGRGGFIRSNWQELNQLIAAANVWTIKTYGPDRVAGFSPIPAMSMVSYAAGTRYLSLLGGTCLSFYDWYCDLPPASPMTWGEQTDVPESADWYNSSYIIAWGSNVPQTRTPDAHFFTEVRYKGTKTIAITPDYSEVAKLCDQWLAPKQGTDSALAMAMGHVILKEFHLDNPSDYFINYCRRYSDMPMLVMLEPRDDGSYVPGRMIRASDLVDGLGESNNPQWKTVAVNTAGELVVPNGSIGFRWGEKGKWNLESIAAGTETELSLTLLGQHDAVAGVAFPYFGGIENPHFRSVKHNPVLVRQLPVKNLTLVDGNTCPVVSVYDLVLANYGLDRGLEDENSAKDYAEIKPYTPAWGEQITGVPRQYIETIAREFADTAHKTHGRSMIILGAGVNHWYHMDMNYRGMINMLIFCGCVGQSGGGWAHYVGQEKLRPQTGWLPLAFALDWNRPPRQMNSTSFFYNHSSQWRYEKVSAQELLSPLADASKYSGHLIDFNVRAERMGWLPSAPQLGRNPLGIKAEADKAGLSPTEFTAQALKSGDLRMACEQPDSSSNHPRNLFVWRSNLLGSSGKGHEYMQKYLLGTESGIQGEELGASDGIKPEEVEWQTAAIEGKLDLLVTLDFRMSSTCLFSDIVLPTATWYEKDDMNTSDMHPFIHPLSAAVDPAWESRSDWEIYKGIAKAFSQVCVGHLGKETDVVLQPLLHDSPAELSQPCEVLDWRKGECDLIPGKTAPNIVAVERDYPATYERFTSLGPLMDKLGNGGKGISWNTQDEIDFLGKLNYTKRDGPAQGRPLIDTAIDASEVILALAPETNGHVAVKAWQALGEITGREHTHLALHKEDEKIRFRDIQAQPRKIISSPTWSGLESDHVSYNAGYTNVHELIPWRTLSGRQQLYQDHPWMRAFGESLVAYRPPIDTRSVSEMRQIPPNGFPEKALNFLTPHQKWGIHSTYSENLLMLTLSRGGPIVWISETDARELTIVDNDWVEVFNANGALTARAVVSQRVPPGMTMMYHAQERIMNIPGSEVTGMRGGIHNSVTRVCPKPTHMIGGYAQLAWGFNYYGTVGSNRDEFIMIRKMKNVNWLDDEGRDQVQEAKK
UniProt P0AGH1: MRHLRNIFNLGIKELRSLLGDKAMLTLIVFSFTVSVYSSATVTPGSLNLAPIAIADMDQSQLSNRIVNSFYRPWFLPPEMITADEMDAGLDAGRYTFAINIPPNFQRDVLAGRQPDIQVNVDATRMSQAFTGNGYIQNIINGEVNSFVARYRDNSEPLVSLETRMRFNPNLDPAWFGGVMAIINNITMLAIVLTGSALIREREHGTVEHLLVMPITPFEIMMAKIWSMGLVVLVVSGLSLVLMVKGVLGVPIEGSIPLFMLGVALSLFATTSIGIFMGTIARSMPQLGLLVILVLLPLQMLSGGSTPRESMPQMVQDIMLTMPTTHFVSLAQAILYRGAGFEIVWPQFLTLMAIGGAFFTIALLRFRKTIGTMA
UniProt P0DP90: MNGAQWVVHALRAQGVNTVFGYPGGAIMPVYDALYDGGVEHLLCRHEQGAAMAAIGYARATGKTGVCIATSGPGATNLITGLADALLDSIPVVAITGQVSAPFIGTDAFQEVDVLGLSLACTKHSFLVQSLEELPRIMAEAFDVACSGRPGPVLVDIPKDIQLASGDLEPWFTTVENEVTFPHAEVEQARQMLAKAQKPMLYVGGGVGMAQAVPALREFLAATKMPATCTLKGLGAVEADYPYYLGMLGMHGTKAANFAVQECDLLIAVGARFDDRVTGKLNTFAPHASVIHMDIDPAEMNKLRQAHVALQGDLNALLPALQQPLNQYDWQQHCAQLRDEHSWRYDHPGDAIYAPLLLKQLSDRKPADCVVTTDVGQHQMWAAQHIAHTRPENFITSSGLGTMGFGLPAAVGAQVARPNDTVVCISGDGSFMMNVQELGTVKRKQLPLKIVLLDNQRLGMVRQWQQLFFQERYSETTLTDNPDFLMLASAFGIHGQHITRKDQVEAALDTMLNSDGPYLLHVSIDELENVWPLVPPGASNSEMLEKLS
UniProt P13518: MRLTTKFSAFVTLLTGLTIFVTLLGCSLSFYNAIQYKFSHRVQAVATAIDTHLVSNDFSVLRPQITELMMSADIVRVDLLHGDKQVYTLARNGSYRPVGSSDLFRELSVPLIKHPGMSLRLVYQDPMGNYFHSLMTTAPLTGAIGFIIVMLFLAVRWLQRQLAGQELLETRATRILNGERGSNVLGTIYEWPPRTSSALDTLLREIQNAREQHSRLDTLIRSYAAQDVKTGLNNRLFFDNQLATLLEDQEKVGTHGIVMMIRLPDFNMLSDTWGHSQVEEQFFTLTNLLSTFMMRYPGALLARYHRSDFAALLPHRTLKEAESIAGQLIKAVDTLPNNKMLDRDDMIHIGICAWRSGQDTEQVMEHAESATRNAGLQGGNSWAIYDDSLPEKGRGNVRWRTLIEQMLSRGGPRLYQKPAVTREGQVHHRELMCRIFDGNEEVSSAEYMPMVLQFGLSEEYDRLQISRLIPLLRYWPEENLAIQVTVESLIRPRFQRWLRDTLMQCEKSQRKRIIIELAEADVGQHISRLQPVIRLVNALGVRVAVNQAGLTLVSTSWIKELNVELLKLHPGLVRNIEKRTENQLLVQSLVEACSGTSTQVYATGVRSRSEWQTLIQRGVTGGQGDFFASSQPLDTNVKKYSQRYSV
UniProt P21345: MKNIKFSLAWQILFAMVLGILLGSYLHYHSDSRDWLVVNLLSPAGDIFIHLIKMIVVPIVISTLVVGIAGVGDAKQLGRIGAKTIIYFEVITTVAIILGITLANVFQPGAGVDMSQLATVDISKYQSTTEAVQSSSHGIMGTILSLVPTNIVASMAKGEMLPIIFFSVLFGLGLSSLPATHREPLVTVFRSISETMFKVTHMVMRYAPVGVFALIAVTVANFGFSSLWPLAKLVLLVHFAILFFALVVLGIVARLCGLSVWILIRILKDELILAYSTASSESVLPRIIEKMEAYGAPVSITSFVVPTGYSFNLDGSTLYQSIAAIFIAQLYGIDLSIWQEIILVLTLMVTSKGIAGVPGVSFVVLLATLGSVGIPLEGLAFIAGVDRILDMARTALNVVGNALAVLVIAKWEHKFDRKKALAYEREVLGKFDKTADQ
UniProt P23842: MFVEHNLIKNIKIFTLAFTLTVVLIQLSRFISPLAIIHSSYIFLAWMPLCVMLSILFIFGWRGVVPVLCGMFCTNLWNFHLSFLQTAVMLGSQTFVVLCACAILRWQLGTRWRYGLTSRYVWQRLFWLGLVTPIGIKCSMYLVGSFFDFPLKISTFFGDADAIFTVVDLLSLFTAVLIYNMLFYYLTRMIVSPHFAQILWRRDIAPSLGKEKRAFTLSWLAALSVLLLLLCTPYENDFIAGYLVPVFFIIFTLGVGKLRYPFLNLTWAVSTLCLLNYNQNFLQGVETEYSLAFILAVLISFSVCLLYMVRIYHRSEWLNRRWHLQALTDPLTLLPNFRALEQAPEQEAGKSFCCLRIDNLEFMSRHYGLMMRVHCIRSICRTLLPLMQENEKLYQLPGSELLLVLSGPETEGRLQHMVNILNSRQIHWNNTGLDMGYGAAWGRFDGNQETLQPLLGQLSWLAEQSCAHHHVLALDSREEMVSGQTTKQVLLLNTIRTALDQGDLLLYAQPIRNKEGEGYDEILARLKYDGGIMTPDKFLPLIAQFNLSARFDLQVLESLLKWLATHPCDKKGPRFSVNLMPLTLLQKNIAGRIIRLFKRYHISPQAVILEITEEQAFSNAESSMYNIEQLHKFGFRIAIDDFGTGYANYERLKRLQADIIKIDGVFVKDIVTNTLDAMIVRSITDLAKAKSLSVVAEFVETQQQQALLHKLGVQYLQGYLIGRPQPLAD

| Target | log2 fold change |
| --- | --- |
| UniProt P19926 (peptide sequence: GGVLEVYMGHYMR, peptide start residue: 75) | -0.199 |
| UniProt P15288 (peptide sequence: EKGFHVER, peptide start residue: 42) | -0.683 |
| UniProt P23305 (peptide sequence: LFPDRWR, peptide start residue: 125) | -0.561 |
| UniProt P15006 (peptide sequence: METDITIR, peptide start residue: 241) | -0.141 |
| UniProt P19319 (peptide sequence: GETFADGHGQVMHSNR, peptide start residue: 15) | 0.398 |
| UniProt P0AGH1 (peptide sequence: YRDNSEPLVSLETR, peptide start residue: 151) | 0.111 |
| UniProt P0DP90 (peptide sequence: LNTFAPHASVIHMDIDPAEMNK, peptide start residue: 281) | 0.33 |
| UniProt P0CF40 (peptide sequence: KWIAHAPLLPGDGE, peptide start residue: 108) | 0.291 |
| UniProt P13518 (peptide sequence: SGQDTEQVMEHAESATR, peptide start residue: 356) | 0.28 |
| UniProt P21345 (peptide sequence: EVLGKFDK, peptide start residue: 426) | -0.0326 |
| UniProt P23842 (peptide sequence: NKEGEGYDEILAR, peptide start residue: 513) | 0.471 |

— the supplement of paper PMC12819154, “High-throughput peptide-centric local stability assay extends protein–ligand identification to membrane proteins, tissues and bacteria” (Nature Structural & Molecular Biology, 2025)
